Laboratory results reported in PubChem BioAssay AID1508600 (Functional Genomics Laboratory (NCATS/FGL), 2020).
Out of some 53,000 sequences screened, about 3,700 (7%) were called active.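 How the source made its calls: active means gene knockdowns whose robust z-score for IL-1 alpha signal is at least 2 or at most -2, so actives lie on both sides; inactive means the rest.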 The list shows a part of the results.

Test: Components of the Cytosolic LPS Sensing Pathway: Gene Identification via Genome-wide siRNA Screen;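 further: robust z of the log signal after scaling to non-targeting control siRNA wells of the plate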
Details: RAW264.7 macrophages, IL-1a HTRF, actives lie on both sides, screened at 100 nM (by protocol), cells primed 5 h with Pam3CSK4 first
Outline: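 Using IL-1a HTRF as read-out, the screen measured release from RAW264.7 cells after 48h siRNA knockdown (100 nM), 5 h Pam3CSK4 priming and 24 h cytosolic LipidA. Values were expressed relative to negative-control wells as robust z-scores.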

Sequence | z-score
GGGAGUUGAGAAGACAUAATT against Lim2 | inactive: 0.223
GCAGGGAUUUUAACCAAUATT against Inf2 | inactive: 1.41
GCGGGAGAAGCUAAUGAAATT against Ndufs5 | active: 2.21
GGAACCUUAGUGGAGGAUATT against Icos | inactive: 0.712
GCAACUUAAUACUAGGUGATT against Acad11 | inactive: -1.21
GGCCUGGAAACGUAUUUACTT against Snx24 | inactive: 0.717
GGCACUCAGGCUUAAUCAUTT against 9530003J23Rik | inactive: -0.88
GCAAAUGAUUCUUGUCAAATT against Cog7 | inactive: 0.397
GACUGUAAUGAAGCAUUUATT against Rad21 | inactive: -1.68
GCCAGUGGGAUGUCAAAAATT against Zc3h11a | inactive: -0.434
CCCAUUUGAGUGUACAUAATT against Fam107b | inactive: 1.38
GGCUUUGCUAUCAACUCGCTT against Pla2g4f | inactive: -1.02
CCAAAGUGGACAAAUUAGUTT against Pank2 | inactive: 0.461
CGCAUCAACACCUUCGUGATT against Kcnk3 | inactive: -1.21
AAUACCUAGACUGACAUGUTT against Trp53rkb | inactive: -0.122
CCGAAGCCUAAGGUCCAAATT against Rpl29 | inactive: -0.0939
GGAAGAUUCCAAAACUAGATT against Ttc26 | inactive: -1.05
GGUUUCACUGACAAAACUATT against Zim1 | inactive: 0.235
GCGAUCUAGUUUCAUUAAATT against Prpf19 | inactive: 0.24
GGAGGAAGAAACAGAACCATT against Ankrd33 | inactive: 0.17
GCUCCUUAGAGAGAGUAUUTT against Sod3 | inactive: -0.399
CCCAACUAGUGUAGCUAUCTT against Usf1 | inactive: -1.95

Sequence | z-score
GGUCCUGUUAAACUGAAAGTT against Fkbp1a | inactive: -1.45
GCAGACAAAGAUCGCCAAATT against H2-Q5 | inactive: 0.795
GGGACAACAAUGGUUUAGGTT against Tsga13 | inactive: -1.8
GCAACUGUACACUAGAUACTT against Dcun1d1 | inactive: 0.00276
GGUCAAGUUUGACCUCAAGTT against Mybpc3 | inactive: -0.971
CCGGACUCAGUUAUGGAAGTT against Gpr135 | inactive: 0.883
CCUAAAGUGAUUGCUGAUUTT against Olfr1202 | inactive: 0.632
GGAGAGUUAUUUGACCACCTT against Emd | inactive: 1.97
GGGUUCAGACUGCUUCUUATT against 2900005J15Rik | inactive: -0.845
GGCACAAACUAGAUGCAGATT against Ccdc68 | inactive: -0.669
GGCCAAGGAAAUAUCAAUGTT against Alg14 | active: 2.69
GGACAUUAUCCUCAGGGUGTT against Ccm2 | inactive: -1.61
GGAUGAAAAACUUUGAAACTT against Hao1 | inactive: -0.136
GGGAAUCUAAGCUGUAUUUTT against Lyzl1 | inactive: -0.725
CCUUUUCAGCAGAAUAUCGTT against Ifnar1 | inactive: 0.427
GGCCUACAUACUCCUGAAGTT against Ttc21a | inactive: -1.28
GGUAGCACUUACGUGAAAUTT against Mbd2 | inactive: -0.655
GGGACACUUUCACUUGUUCTT against Rmnd5a | inactive: 0.159
GGUCGAACUUCUGUGCCAUTT against Slc39a8 | active: 2.39
GCAUGAUACCAAUAGAGAATT against Acot4 | inactive: -0.0439
GGAGAUGGAGUGAAUUGGCTT against 4933404G15Rik | inactive: -0.993
GCAACAAUCUAACCUCAGATT against Mela | active: -2.3

An excerpt taken from the entries so far, for reference:
Sequence | z-score
GGGACAACAAUGGUUUAGGTT against Tsga13 | inactive: -1.8
GCAACUGUACACUAGAUACTT against Dcun1d1 | inactive: 0.00276
GGUCAAGUUUGACCUCAAGTT against Mybpc3 | inactive: -0.971
CCGGACUCAGUUAUGGAAGTT against Gpr135 | inactive: 0.883
CCUAAAGUGAUUGCUGAUUTT against Olfr1202 | inactive: 0.632
GGAGAGUUAUUUGACCACCTT against Emd | inactive: 1.97

Continued:

Sequence | z-score
CCUCCAAUCCGUUGAAGAATT against Zfp935 | inactive: -0.6
CCAACAAUAAACGAGGUCCTT against Mnt | inactive: 0.697
GCCUGUAUACAUAAGUAAATT against Syngr4 | inactive: -0.281
GAAGUACAAGGUAGAGUACTT against Mgst3 | inactive: -0.428
GGAUUUCUCUGCCUGUACUTT against Gdpgp1 | inactive: 0.37
GGACUCCUUUAAGCCACUUTT against Prkag1 | inactive: -1.39
GGCCUUUUCAUUGUUUGACTT against Myl4 | inactive: -1.47
GGAGUACCUGUGGUGCAUUTT against Ahcy | inactive: 0.213
GCUACAUAAUUCCGAAGUUTT against Fmr1 | active: 2.23
GGAAGCUGGCAAGUUUAUGTT against Cfap161 | inactive: -0.159
CGACAAGAAAACAUACUAGTT against Gins4 | active: 2.28
GGCCCAAGAUUUCAAUUAGTT against 9130230L23Rik | inactive: -0.0833
GGACAAAGUAUUUGUGACCTT against Cd3d | inactive: 0.00913
CCUGGUAGCUUCUUCUCAATT against Krt4 | inactive: 1.03
GGCCGGCUAAAGGCUUUUUTT against Olfr1019 | inactive: 0.858
GGGCAGACAGUUUACAGAATT against Aco1 | inactive: -0.634
GGUUUAAUUCUUGUCUUGUTT against Pvt1 | inactive: -0.928
GGAAUGAAAGUUCCACUAUTT against Emcn | inactive: -0.633
GCAAAUCGGCCAAGAGAUGTT against Vti1a | inactive: 0.199
CAGCGGCCGCGCUUCACCGTT against 4930404N11Rik | inactive: 0.92
GGGUCGAUUGUCAAUAUCATT against Pecr | inactive: 0.478
GCAGAUCGCAAAAGAUCCUTT against Nppa | inactive: 0.69

Single values from above:
Entry of GCAGAUCGCAAAAGAUCCUTT against Nppa under z-score: inactive: 0.69
Entry of GGUUUAAUUCUUGUCUUGUTT against Pvt1 under z-score: inactive: -0.928

Further records.

Sequence | z-score
GGACAAAGUUGUUCCUUCUTT against Zfp13 | active: -2.62
GGCCCUACCCAUUCAUUCUTT against Asb6 | inactive: 0.212
CGUUGCUGUUGUGGUCUUGTT against Olfr1232 | active: -2.71
GGGAAGUUGUCCUUGAAGATT against Cd36 | inactive: -0.037
GCCCGGAAUAUAUAGCCCUTT against Hdac10 | inactive: -0.706
CCUUAUACCAUAGAGAACATT against Bfar | inactive: 1.14
GCAAGAUCAAACCUUAGUGTT against Pbsn | inactive: 0.952
GGAUGAUUUAUGGUUCUUGTT against Vmn1r76 | inactive: -0.382
GGUGGAACCUAUGUACUUUTT against Cygb | inactive: -1.05
GGAAUUCUCUAUACCAAGATT against P2ry10b | inactive: 0.51
GGAGGGCAUGGAGAACAUGTT against Pkn3 | inactive: -0.94
CCAAAGCCAGCAAAUAAACTT against Scnn1g | inactive: 0.565
CGAGCUGUUAGAAUUCAGATT against Jakmip1 | inactive: -0.818
CCCAUUAACCACUCCUAAATT against Tafa2 | inactive: -1.13
GGGACUUGCAUUUUAUAUUTT against Cfap61 | inactive: 0.33
GGUCCAGCUAUAAAGACAATT against Slc10a5 | inactive: 0.297
GCCUAAGACCAACUGGCAATT against Theg | inactive: 0.735
GCCUAUCACAUCUUAUCUGTT against 4930503B20Rik | inactive: -0.225
GUAGUAACAGGAUCUUCUUTT against Vmn1r6 | inactive: -0.293
GGGCUCAUCCUUAAAGAUUTT against Kdm5c | inactive: -0.0812
GCCUUUCAACUCACCAGCCTT against Zfp574 | inactive: 0.617
GGACCUAAAGAUUAUCUUATT against Rgs4 | inactive: 0.5

Sequence | z-score
CCCUAGCUAUCAAGAUAUUTT against Hace1 | inactive: 0.724
GGUUCUGAAAGCAAACAAATT against Fgf18 | inactive: -0.91
GGAUACAGCAGAUCUUAUUTT against Haus2 | inactive: 0.717
CGUGUAAGUUUUGAUUCUATT against Calr | inactive: 0.815
GUCGCUCUUCUAAAACUUUTT against Mob1b | inactive: 0.278
CGACAUUUUACUAAGAGAUTT against Idnk | inactive: -0.895
GGUGACAAAGGUGUUAGAATT against Itpkc | inactive: -0.252
GCCUACAGCUCUUUACACATT against Gpr89 | inactive: 0.593
GCCAGGCAUCUACUUCAUUTT against Pepd | inactive: -1.06
GGGAUAAUAAUGUUGAUUGTT against Mrc1 | inactive: -0.152
GGCCUGAACUUUUUAUUGATT against Olfr533 | active: -2.19
CCCAGUUUAGAUUGGUCAATT against Igfbp5 | inactive: 1.15
GGACCUGAAUAAGACUAUUTT against Lgmn | inactive: -0.429
GGAGUGGUAUACCAUGUCUTT against Nipal4 | inactive: -0.884
GGAAGUUGGAAAGAACCUATT against Bcl2a1c | inactive: 0.881
GCACACGUCCUAUAAAAAUTT against Rad54b | inactive: 0.532
GGAAGCAAUGAUCAAUUAUTT against Ppp2r3c | inactive: 0.752
GGAUAGGAAAAAAUCACCATT against Prpf4b | inactive: -1.14
GGAAUGGUAAUGCUAUUGGTT against Tmem39a | inactive: 0.169
